Results as given in PubChem BioAssay AID2685 (National Center for Advancing Translational Sciences (NCATS), 2010).
Some of the results follow. These are further read-outs of the screen, such as a control signal, another cell line or another target. No call is given for them. Compounds called inactive in the main read-out are mostly missing here. The note in brackets gives the kind of curve behind each potency; many fits are weak.

Test: qHTS Assay for Lipid Storage Modulators in Drosophila S3 Cells;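 as to cell number change: cells counted by Cell Tracker Red CMTPX staining in the red channel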
Conditions: BODIPY lipid droplet fluorescence, 18-24 h; for cell number change: measured here: cell count max response, cells fed with added oleic acid
Summary of the method: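 Drosophila S3 cells got compounds at several concentrations plus oleic acid (400 uM solution). Laser-scanning cytometry with 488 nm excitation read lipid droplets at 500-530 nm and cells at 575-640 nm. Percent activity was relative to 20 uM Triacsin C.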

[1] = measured here: lipid fluorescence (Fed channel) AC50, cells fed with added oleic acid
[2] = measured here: cell number channel AC50, cells fed with added oleic acid

Compound | cell number change | AC50 [1] | AC50 [2]
COc1ccccc1-n1cnc(N)c1C(C)=O | -8.71% | 0.651 µM [falling, single point] | 
O=C(Nc1ccc(N2CCOCC2)cc1)c1ccc2nc(-c3ccco3)c(-c3ccco3)nc2c1 | -26.1% | 29.1 µM [falling, single point] | 
Cc1ccc(S(=O)(=O)N(C)c2ccc(OC(=O)c3ccc(N4CCCC4=O)cc3)cc2)cc1 | -7.43% |  | 
CC/C(=N/Nc1cccc(C)c1)c1cnnc(SC)n1 | 2.77% | 3.66 µM [falling, partial curve] | 7.31 µM [rising, single point]
Cc1ccc(C(=O)N(Cc2nnc(-c3ccc(Cl)cc3)o2)C2CC2)o1 | 30.3% | 4.61 µM [falling, partial curve] | 
S=C(NCCc1ccccc1)NCCN1CCOCC1 | 19.4% | 18.4 µM [rising, partial curve] | 0.116 µM [rising, full curve, poor fit]
COc1ccc2nc(SCC(=O)Nc3ccc4sc(C)nc4c3)c(C#N)cc2c1 |  | 0.731 µM [rising, single point] | 
COc1ccc(OCC(=O)Nc2sc3c(c2C(=O)NCC2CCCO2)CCC3)cc1 (stereo unspecified) | 25.3% |  | 
CC(C)c1ccc(C(O)c2nc3ccccc3n2C)cc1 (stereo unspecified) | -25.2% | 29.1 µM [falling, single point] | 
CC(=O)c1cnc(Nc2nc(C)c3cccc(C)c3n2)nc1C | 14.4% | 3.66 µM [rising, full curve, poor fit] | 
CCCc1[nH]nc2c1C(CCC)C(C#N)=C(N)O2 (stereo unspecified) | -0.748% |  | 
O=C(NC(=S)Nc1ccc2[nH]c(=O)[nH]c2c1)c1cncc(Br)c1 | -29.2% | 0.461 µM [falling, full curve] | 0.731 µM [falling, full curve, poor fit]
O=C(NCC(c1ccco1)N1CCc2ccccc21)C(=O)Nc1ccccc1 (stereo unspecified) |  | 29.1 µM [rising, single point] | 
CC(C)(C)NC(=O)c1ccc(C(=O)NC(C)(C)C)cc1 | 2.61% | 6.51 µM [rising, single point] | 
COCCCNc1nc2ccccc2nc1NS(=O)(=O)c1ccc(OC)cc1 | 9.8% | 7.31 µM [rising, partial curve, poor fit] | 
Cc1ccc2c(c1)N(CCCC(=O)NCC1COc3ccccc3O1)C(=O)CO2 (stereo unspecified) | 141% |  | 29.1 µM [rising, partial curve, poor fit]
CN(CC(=O)Nc1ccc(F)cc1)C(=O)CSc1nncs1 | 9.76% | 0.82 µM [rising, full curve, poor fit] | 
O=C(O)C1CSC2(c3ccc(F)cc3)CCC(=O)N12 (stereo unspecified) | 16.3% | 0.0058 µM [rising, full curve] | 
C=CCn1c(SCC(=O)c2ccc(NS(=O)(=O)c3ccccc3)cc2)nnc1-c1cccs1 | 16.8% |  | 
O=C(NCC1CCCO1)c1cc(-c2ccccc2)nc2ccccc12 (stereo unspecified) | 1.64% | 2.06 µM [rising, partial curve] | 

Compound | cell number change | AC50 [1] | AC50 [2]
CN(C)CCNC(=O)CCCNC(=O)Cn1cnc2sc3c(c2c1=O)CCCC3 | -22.6% | 0.651 µM [falling, full curve] | 
Cn1c(=O)c2c(nc(CO)n2C)n(C)c1=O | -28.4% | 1.16 µM [falling, full curve, poor fit] | 
Clc1ccc(Cc2noc(CN3CCN(c4ccccc4)CC3)n2)c(Cl)c1 | 3.79% | 0.146 µM [falling, single point] | 
CC(=O)c1ccccc1C(=O)N1CCC(n2nccc2NC(=O)C2CC2)CC1 | -0.578% | 0.146 µM [rising, full curve, poor fit] | 
COc1ccc(CN(C)C(=O)C(Cc2ccccc2)NC(=O)c2ccccc2)cc1F (stereo unspecified) |  | 0.82 µM [rising, partial curve] | 2.91 µM [rising, single point]
Cc1ccccc1NC(=O)CSc1nnc(NC(=O)c2ccco2)s1 | 8.37% | 2.06 µM [rising, single point] | 
C/C(C=O)=C/c1ccccc1 | -19.5% | 0.731 µM [falling, partial curve, poor fit] | 0.82 µM [falling, single point]
CN(C)c1cccc(/C=C(\C#N)c2ccccc2)c1 | 21% | 0.58 µM [rising, partial curve] | 
COC(=O)Cn1ccc(N(C)C)c(C#N)c1=O |  | 0.58 µM [rising, single point] | 
COc1cc(NS(=O)(=O)c2ccc(C)cc2C)cc(OC)c1OC | 5.94% | 1.64 µM [falling, partial curve] | 
CN1/C(=c2/s/c(=C3/C(=O)N(c4ccccc4)NC3=Nc3ccccc3)n(C)c2=O)C(C)(C)c2ccccc21 | -148% |  | 20.6 µM [falling, partial curve]
COc1ccccc1CN(Cc1cc2cc(C)cc(C)c2[nH]c1=O)Cc1nnnn1CC1CCCO1 (stereo unspecified) | 33.7% |  | 
CCOC(=O)C1CCN(C(=O)CN(c2ccc(OC)cc2)S(=O)(=O)c2c(C)noc2C)CC1 | 31.5% | 6.51 µM [rising, single point] | 6.51 µM [rising, single point]
CCOC(=O)CSc1nc2cccnc2n1-c1ccc(F)cc1 |  | 6.51 µM [rising, single point] | 
COc1ccc(CNC(=O)COC(=O)c2cnccn2)cc1 | -42.5% |  | 0.517 µM [falling, full curve]
O=C(CC(Nc1ccc(F)cc1)c1ccccc1)c1ccccc1 (stereo unspecified) | -18.4% | 29.1 µM [falling, single point] | 
CCOc1cc(N2CCOCC2)c(OCC)cc1NC(=O)c1ccc2ncsc2c1 | -49.7% | 29.1 µM [falling, single point] | 25.9 µM [falling, single point]
O=C(NCCN1CCOCC1)c1cccnc1SCc1ccccc1Cl | 14.7% | 0.116 µM [rising, full curve, poor fit] | 
CCC(C)NS(=O)(=O)c1ccc(NC(=O)Cc2ccc(OC)cc2)cc1 (stereo unspecified) | -28.1% | 23.1 µM [falling, partial curve, poor fit] | 
Cc1ccc(NS(=O)(=O)c2ccc3c(c2)NC(=O)C(C)C(=O)N3)c(Br)c1 (stereo unspecified) | 1.15% | 6.51 µM [rising, single point] | 

3 entries from above, ordered by molar mass, low to high:
Compound | cell number change | AC50 [1] | AC50 [2]
COC(=O)Cn1ccc(N(C)C)c(C#N)c1=O |  | 0.58 µM [rising, single point] | 
CN(C)c1cccc(/C=C(\C#N)c2ccccc2)c1 | 21% | 0.58 µM [rising, partial curve] | 
CC(=O)c1ccccc1C(=O)N1CCC(n2nccc2NC(=O)C2CC2)CC1 | -0.578% | 0.146 µM [rising, full curve, poor fit] | 

(list continues)

Compound | cell number change | AC50 [1] | AC50 [2]
c1ccc(CC(Nc2ccccn2)c2ccccc2)cc1 (stereo unspecified) | 18% |  | 
COc1ccc(-c2nc3cccc(C)n3c2NCc2ccco2)cc1OC |  | 6.51 µM [rising, single point] | 6.51 µM [rising, single point]
O=C(CSc1cccc[n+]1[O-])Nc1ccc2c(c1)OCO2 | 8.82% | 0.00651 µM [rising, full curve] | 
O=S(=O)(Nc1ncccn1)c1ccc(-n2cnnn2)cc1 | -0.937% |  | 1.16 µM [falling, single point]
Cc1ccc(OCCCC(=O)Nc2cc(Cl)ccc2-n2cncn2)cc1 |  | 0.651 µM [rising, partial curve, poor fit] | 0.206 µM [rising, partial curve]
Cc1ccc(C(=O)c2c3ccccc3[n+]([O-])n2[C@@H](C)C(N)=O)cc1 | 26.7% | 2.31 µM [rising, partial curve, poor fit] | 0.0326 µM [rising, full curve, poor fit]
Cc1ccc2nc(N(CCN(C)C)C(=O)c3ccc4ccccc4c3)sc2c1 |  | 6.51 µM [rising, single point] | 
CC(=O)N(C)c1ccc(NS(=O)(=O)Cc2ccccc2)cc1 | 35.5% |  | 32.6 µM [rising, single point]
CCCCc1ccc(NC(=O)CSC2=C(C#N)C(c3ccco3)C3=C(CCCC3=O)N2)cc1 (stereo unspecified) | -27.6% | 2.31 µM [falling, full curve] | 
Nc1nc(O)c(CC(=O)O)s1 |  | 0.0291 µM [rising, full curve, poor fit] | 
O=C(Cc1ccccc1F)c1ccc(O)cc1O | -1.31% | 0.146 µM [falling, single point] | 
Cc1ccnc(NC(=O)c2ccc(NC(=O)c3ccco3)cc2)c1 | -15.4% | 23.1 µM [falling, single point] | 
Cc1ccn2cc(-c3cccc([N+](=O)[O-])c3)nc2c1 | 15.1% |  | 
COc1cc(/C=N/NC(=O)Nc2ccccc2)ccc1OC(C)=O | 19.6% | 29.1 µM [falling, single point] | 
CCCCOc1ccc(-c2nnn(CC(=O)Nc3ncc(CC(=O)OCC)s3)n2)cc1 | 129% |  | 29.1 µM [rising, single point]
CCN1CCN(C(c2cc3cc4c(cc3[nH]c2=O)OCO4)c2nnnn2C(C)(C)CC)CC1 (stereo unspecified) | 30.8% | 2.59 µM [rising, single point] | 7.31 µM [rising, partial curve, poor fit]
CN(CCO)c1nc(NCc2ccccc2)c2cnn(C)c2n1 | 5.5% | 0.00461 µM [rising, full curve, poor fit] | 
Cc1cc(C)c(C)c(S(=O)(=O)N2CCC(C(=O)Nc3ccncc3)CC2)c1C | -9.06% | 0.82 µM [falling, full curve] | 
O=C(Nc1ccc(F)cc1)N1CCN2C(=O)c3ccccc3C12c1ccccc1 (stereo unspecified) | 83.1% | 1.3 µM [rising, partial curve] | 13 µM [rising, partial curve]
COC(=O)c1cc2nc(-c3ccc(OC)c(OC)c3)cc(C(F)(F)F)n2n1 | -29.5% |  | 0.00517 µM [falling, full curve, poor fit]
